Experimental data as given in PubChem BioAssay AID1439 (NMMLSC, 2008).
Among all 220,000 compounds or so, about 770 (0.35%) were called active. The shares of active, inactive and inconclusive entries below differ from those in the screen. No stated cut-off is given here; in the data, active means binding response below about 49% or above about 150%; inconclusive means no clear call, values can overlap the other calls; inactive means in between.

Protein sequences, listed by entry. Tags and fused reporters are not part of them.
UniProt P09471, whole entry, looked up: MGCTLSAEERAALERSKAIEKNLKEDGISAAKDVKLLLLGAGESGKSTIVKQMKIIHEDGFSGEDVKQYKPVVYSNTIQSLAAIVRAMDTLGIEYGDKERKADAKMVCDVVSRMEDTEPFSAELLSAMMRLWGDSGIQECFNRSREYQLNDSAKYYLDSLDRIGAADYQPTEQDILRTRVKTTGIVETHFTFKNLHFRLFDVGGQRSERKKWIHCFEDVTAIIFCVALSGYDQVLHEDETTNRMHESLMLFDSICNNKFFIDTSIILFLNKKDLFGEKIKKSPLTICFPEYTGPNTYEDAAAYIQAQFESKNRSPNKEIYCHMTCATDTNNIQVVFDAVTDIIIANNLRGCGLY

Biological target: Guanine nucleotide-binding protein G(o) subunit alpha (Homo sapiens) (UniProt P09471)
Assay: RGS7-Galphao binding modulators, primary screen, biochemical, multiplexed bead flow cytometry (AID 1439);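 further: fluorescent Galphao held in activated GDP-AlF4 state binding bead-coupled RGS7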
Conditions: at 10 µM, actives lie on both sides

SMILES | binding response (% of control)
c1ccc(-c2nc3nc4ccccc4nc3n2CC2CCCO2)cc1 (stereo not given) | inconclusive: 69.2%
NS(=O)(=O)c1ccc(Nc2ccc([N+](=O)[O-])c3nonc23)cc1 | inconclusive: 116%
CCC(NC(=O)NNC(=O)c1ccncc1)(C(F)(F)F)C(F)(F)F | inconclusive: 78.8%
CC(=O)N(C(C)=O)c1nc(-c2ccccc2)cn1/N=C/c1ccccc1 | inconclusive: 96.5%
COc1ccccc1NS(=O)(=O)c1cc(C(=O)NCCC(C)C)ccc1F | inconclusive: 96.9%
Nc1c2nc(-c3ccccc3)[nH]c(=O)c2nc(=O)n1-c1ccccc1 | inconclusive: 125%
Cc1c(CCOC(=O)c2cc([N+](=O)[O-])cc([N+](=O)[O-])c2)sc[n+]1CC(=O)c1ccc(Br)cc1 | inconclusive: 84.3%
O=C(N=Nc1c(O)[nH]c2ccc(Br)cc12)c1cc(-c2cccs2)nc2ccccc12 | inconclusive: 112%
Cc1cc2cc(CNC(=O)C3CCCC3)ccc2n1C | inconclusive: 92.1%
O=C(CNc1cccc(C(F)(F)F)c1)N/N=C/c1ccccc1C(=O)O | inconclusive: 79.4%
N#C/C(=N\Nc1cccc(F)c1)C(=O)C1CC1 | inconclusive: 99.1%
CC(C)OC(=O)CSc1nnc(-c2cnccn2)n1Cc1ccco1 | inactive: 101%
COc1ccc(NC(=O)c2ccc(COc3ccccc3Br)o2)cc1OC | inactive: 94.2%
Cc1ccc(S(=O)(=O)N2CCOCC2)cc1NC(=O)CSc1nnnn1C | inconclusive: 100%
CC(C)NC(=S)N/N=C1\CCCc2ccccc21 | inconclusive: 70%
COc1cc(C(=O)c2ccccc2Cl)c([N+](=O)[O-])cc1OC | inconclusive: 99.7%
O=C(O)c1cccc(NC2=Nc3cccc4cccc2c34)c1 | inconclusive: 117%
O=C1C2C3C=CC(C2C(=O)N1CCCO)C1C2C(=O)N(CCCO)C(=O)C2C31 (stereo not given) | inactive: 104%
CCOC(=O)Cc1nnc(Nc2cc(C)ccc2C)c2ccccc12 | inconclusive: 106%
NC(=S)N/N=C/c1ccccc1O | inconclusive: 79.6%
COc1cc(-c2cc(C(=O)Nc3ccc(O)cc3)c3ccccc3n2)cc(OC)c1OC | inconclusive: 178%
N#C/C(=C\c1ccc(N2CCOCC2)o1)C(=O)NC1CCCCC1 | inconclusive: 113%
Cc1cc(C)c2oc(C(=O)Nc3ccc(S(=O)(=O)N4CCCC(C)C4)cc3)cc(=O)c2c1 (stereo not given) | active: 168% [activator]

SMILES | binding response (% of control)
COc1ccc(CNC(N)=O)cc1OC | inactive: 103%
O=C(N/N=C/c1ccc([N+](=O)[O-])o1)c1ccccc1NS(=O)(=O)c1cccs1 | inconclusive: 84.9%
Cc1cccc(C)c1-n1nnnc1-c1cnccc1C(F)(F)F | inconclusive: 94.5%
CCOc1ccc2c(c1)C(c1cccs1)=NNC(c1cccnc1)=N2 | inconclusive: 106%
O=C(O)CSCC(=O)N1CCN(S(=O)(=O)c2ccccc2)CC1 | inconclusive: 95.2%
O=C(CSc1cccc[n+]1[O-])NN(c1ccccc1)c1ccccc1 | inconclusive: 40.1%
NC(=O)c1ccsc1NC(=O)COC(=O)/C=C/c1ccc([N+](=O)[O-])cc1 | inconclusive: 113%
O=C(CCC1CCCN(Cc2cccc(Cl)c2)C1)NCc1ccccc1F (stereo not given) | inconclusive: 117%
COc1cc(C(=O)OCC(=O)N2CCCCC2C)ccc1OCc1c(C)noc1C (stereo not given) | inconclusive: 104%
NC(=O)N/N=C(/CCCCCC/C(=N\NC(N)=O)c1ccccc1)c1ccccc1 | inconclusive: -9.08%
O=C(c1cc2ccccc2s1)N1CCOCC1 | inconclusive: 11%
Cn1c(N)c(C(=O)COC(=O)c2ccc(Cl)c(S(=O)(=O)N3CCCC3)c2)c(=O)n(C)c1=O | inconclusive: 109%
CCN(CC)S(=O)(=O)c1ccc(-c2cc(C(=O)OC)sc2C(F)(F)F)cc1 | inconclusive: 79%
CCCOc1ccc(CSc2n[nH]c(C)n2)cc1 | inconclusive: 118%
Cc1cc(NC(=S)N(CCN2CCCCC2)Cc2ccco2)ccc1Cl | inconclusive: 94%
O=C(Nc1nccs1)c1c(O)c2c([nH]c1=O)CCCC2 | inconclusive: 108%
COc1ccccc1CNC(=O)C1CC(c2ccccc2C(F)(F)F)=NO1 (stereo not given) | inconclusive: 114%
O=C(CNc1n[nH]c(=O)[nH]c1=O)N/N=C/c1ccccc1 | inconclusive: 115%
Clc1ccccc1-c1nnc2n1-c1ccccc1SC2 | inconclusive: -245%
Cc1ccc(-c2cc([C@H]3[C@@H]4C=CCC[C@@]4(C)C(=O)N3Cc3ccccc3)ccc2F)cc1 | inconclusive: 104%
NNC(=S)NCc1ccco1 | inconclusive: 99.8%
C=C1CCN([C@H](C(=O)NCc2ccc(OC)cc2)C(C)C)S(=O)(=O)c2ccccc21 | inconclusive: 108%

Part of the list above, as comma-separated lines.
SMILES,binding response (% of control)
CCC(NC(=O)NNC(=O)c1ccncc1)(C(F)(F)F)C(F)(F)F,inconclusive: 78.8%
N#C/C(=C\c1ccc(N2CCOCC2)o1)C(=O)NC1CCCCC1,inconclusive: 113%
O=C(N/N=C/c1ccc([N+](=O)[O-])o1)c1ccccc1NS(=O)(=O)c1cccs1,inconclusive: 84.9%
